We go through four molecules from PubChem BioAssay AID186 (DTP/NCI, 2004).

Structures are written as SMILES. Shown are survivors of the treated group in tumour-free mice. Survivors were counted at the toxicity check, usually on the fifth day, unless a day is given; later deaths do not show. Schedules are NCI's codes, taken here to give the interval after Q, in days (D) or hours (H), and the number of doses after X. Some entries were tested several times; the results are listed from low to high.

The test system of this test is B6D2F1 mice, nontumored toxicity test, survival. The test can be described thus: NCI In Vivo Anticancer Drug Screen. Data for tumor model Nontumored Animals (Toxicity Test) in B6D2F1 (BDF1) mice.

On to `CC(=O)Nc1ncc2ccccc2c1-c1ccc(N(CCCl)CCCl)cc1`, for which the survivor count reads like this: (dose: 1.0 mg/kg/injection, schedule: Q01DX001 (ip), vehicle: other) 2 of 2; (dose: 10.0 mg/kg/injection, schedule: Q01DX001 (ip), vehicle: other) 2 of 2; (dose: 100.0 mg/kg/injection, schedule: Q01DX001 (ip), vehicle: other) 2 of 2.

In the case of `Cc1[nH]c(=O)[nH]c(=O)c1N(CCF)CCCl`, the survivor count is 8 of 8 (dose: 16.0 mg/kg/injection, schedule: Q04DX003 (ip), vehicle: acid diluted with saline); 8 of 8 (dose: 16.0 mg/kg/injection, schedule: Q04DX003 (ip), vehicle: saline with Tween-80); 8 of 8 (dose: 32.0 mg/kg/injection, schedule: Q04DX003 (ip), vehicle: acid diluted with saline); 8 of 8 (dose: 32.0 mg/kg/injection, schedule: Q04DX003 (ip), vehicle: saline with Tween-80); 8 of 8 (dose: 64.0 mg/kg/injection, schedule: Q04DX003 (ip), vehicle: acid diluted with saline); 7 of 8 (dose: 64.0 mg/kg/injection, schedule: Q04DX003 (ip), vehicle: saline with Tween-80). Besides, the survivor count runs as follows: (dose: 128.0 mg/kg/injection, schedule: Q04DX003 (ip), vehicle: acid diluted with saline) 8 of 8; (dose: 128.0 mg/kg/injection, schedule: Q04DX003 (ip), vehicle: saline with Tween-80) 0 of 8; (dose: 256.0 mg/kg/injection, schedule: Q04DX003 (ip), vehicle: acid diluted with saline) 7 of 8; (dose: 256.0 mg/kg/injection, schedule: Q04DX003 (ip), vehicle: saline with Tween-80) 0 of 8.

In the case of `OCC1OC(n2cnc3c(=S)nc[nH]c32)C(O)C1O` (configuration not stated), the survivor count (dose: 75.0 mg/kg/injection, schedule: Q03HX024 (ip), vehicle: saline) was 7 of 8 and 8 of 8; the survivor count (dose: 150.0 mg/kg/injection, schedule: Q03HX024 (ip), vehicle: saline) was 8 of 8; the survivor count (dose: 300.0 mg/kg/injection, schedule: Q03HX024 (ip), vehicle: saline) is 7 of 8 and 8 of 8.

In the case of `COc1cc2c[n+](C)c3c4cc5c(cc4ccc3c2cc1OC)OCO5`, the survivor count reads like this: (dose: 1.0 mg/kg/injection, schedule: Q03HX016 (ip), vehicle: saline) 8 of 8; (dose: 1.0 mg/kg/injection, schedule: Q03HX024 (ip), vehicle: saline) 8 of 8; (dose: 2.0 mg/kg/injection, schedule: Q03HX016 (ip), vehicle: saline) 8 of 8; (dose: 2.0 mg/kg/injection, schedule: Q03HX024 (ip), vehicle: saline) 8 of 8; (dose: 4.0 mg/kg/injection, schedule: Q03HX008 (ip), vehicle: saline) 8 of 8; (dose: 4.0 mg/kg/injection, schedule: Q03HX016 (ip), vehicle: saline) 8 of 8. Moreover, the survivor count is recorded as 8 of 8 (dose: 4.0 mg/kg/injection, schedule: Q03HX024 (ip), vehicle: saline); 6 of 8 (dose: 6.25 mg/kg/injection, schedule: Q01DX009 (ip), vehicle: water); 8 of 8 (dose: 8.0 mg/kg/injection, schedule: Q01DX009 (ip), vehicle: saline); 8 of 8 (dose: 8.0 mg/kg/injection, schedule: Q03HX008 (ip), vehicle: saline); 8 of 8 (dose: 8.0 mg/kg/injection, schedule: Q03HX016 (ip), vehicle: saline); 8 of 8 (dose: 8.0 mg/kg/injection, schedule: Q03HX024 (ip), vehicle: saline). Moreover, the survivor count is on record as 8 of 8 (dose: 8.0 mg/kg/injection, schedule: Q04DX003 (ip), vehicle: saline); 8 of 8 (dose: 8.0 mg/kg/injection, schedule: Q08DX002 (ip), vehicle: saline); 8 of 8 (dose: 10.0 mg/kg/injection, schedule: Q01DX009 (ip), vehicle: water); 7 of 8 (dose: 12.5 mg/kg/injection, schedule: Q01DX009 (ip), vehicle: water); 8 of 8 (dose: 16.0 mg/kg/injection, schedule: Q01DX009 (ip), vehicle: saline); 8 of 8 (dose: 16.0 mg/kg/injection, schedule: Q01DX009 (oral), vehicle: saline). In addition, the survivor count by setting is: (dose: 16.0 mg/kg/injection, schedule: Q03HX008 (ip), vehicle: saline) 6 of 8; (dose: 16.0 mg/kg/injection, schedule: Q03HX016 (ip), vehicle: saline) 7 of 8; (dose: 16.0 mg/kg/injection, schedule: Q03HX024 (ip), vehicle: saline) 8 of 8; (dose: 16.0 mg/kg/injection, schedule: Q04DX003 (ip), vehicle: saline) 8 of 8; (dose: 16.0 mg/kg/injection, schedule: Q08DX002 (ip), vehicle: saline) 8 of 8; (dose: 20.0 mg/kg/injection, schedule: Q01DX009 (ip), vehicle: water) 8 of 8. Further, the survivor count by setting is: (dose: 25.0 mg/kg/injection, schedule: Q01DX009 (ip), vehicle: water) 6 of 8; (dose: 32.0 mg/kg/injection, schedule: Q01DX001 (ip), vehicle: saline) 8 of 8; (dose: 32.0 mg/kg/injection, schedule: Q01DX009 (ip), vehicle: saline) 8 of 8; (dose: 32.0 mg/kg/injection, schedule: Q01DX009 (oral), vehicle: saline) 8 of 8; (dose: 32.0 mg/kg/injection, schedule: Q03HX008 (ip), vehicle: saline) 3 of 8; (dose: 32.0 mg/kg/injection, schedule: Q03HX024 (ip), vehicle: saline) 2 of 8. Further, the survivor count is, setting by setting: (dose: 32.0 mg/kg/injection, schedule: Q04DX003 (ip), vehicle: saline) 8 of 8; (dose: 32.0 mg/kg/injection, schedule: Q08DX002 (ip), vehicle: saline) 8 of 8; (dose: 40.0 mg/kg/injection, schedule: Q01DX009 (ip), vehicle: water) 8 of 8; (dose: 50.0 mg/kg/injection, schedule: Q01DX009 (ip), vehicle: water) 4 of 8; (dose: 64.0 mg/kg/injection, schedule: Q01DX001 (ip), vehicle: saline) 8 of 8; (dose: 64.0 mg/kg/injection, schedule: Q01DX009 (ip), vehicle: saline) 8 of 8. For the same molecule, the survivor count was 8 of 8 (dose: 64.0 mg/kg/injection, schedule: Q01DX009 (oral), vehicle: saline); 1 of 8 (dose: 64.0 mg/kg/injection, schedule: Q03HX008 (ip), vehicle: saline); 8 of 8 (dose: 64.0 mg/kg/injection, schedule: Q04DX003 (ip), vehicle: saline); 8 of 8 (dose: 64.0 mg/kg/injection, schedule: Q08DX002 (ip), vehicle: saline); 5 of 8 (dose: 80.0 mg/kg/injection, schedule: Q01DX009 (ip), vehicle: water); 8 of 8 (dose: 128.0 mg/kg/injection, schedule: Q01DX001 (ip), vehicle: saline). For the same molecule, the survivor count runs as follows: (dose: 128.0 mg/kg/injection, schedule: Q01DX009 (ip), vehicle: saline) 8 of 8; (dose: 128.0 mg/kg/injection, schedule: Q01DX009 (oral), vehicle: saline) 8 of 8; (dose: 128.0 mg/kg/injection, schedule: Q04DX003 (ip), vehicle: saline) 8 of 8; (dose: 128.0 mg/kg/injection, schedule: Q08DX002 (ip), vehicle: saline) 8 of 8; (dose: 256.0 mg/kg/injection, schedule: Q01DX001 (ip), vehicle: saline) 8 of 8; (dose: 256.0 mg/kg/injection, schedule: Q01DX009 (oral), vehicle: saline) 8 of 8. For the same molecule, the survivor count is 7 of 8 (dose: 256.0 mg/kg/injection, schedule: Q04DX003 (ip), vehicle: saline); 8 of 8 (dose: 512.0 mg/kg/injection, schedule: Q01DX001 (ip), vehicle: saline); 7 of 8 (dose: 512.0 mg/kg/injection, schedule: Q01DX009 (oral), vehicle: saline).
